Screening data, single-dose tests

T. brucei: 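Whole-parasite assay of Trypanosoma brucei over 72 hours; the read-out is not stated. Tested at 30 µM. The record gives no direction; compounds that gave an IC50 in retests scored well above the rest, so higher reads as stronger inhibition. Values scatter widely below zero; nearly all retest evidence comes from the higher of the two concentrations used. Size under these conditions: about 64,000 compounds, about 940 of them at 50% or above in at least one test.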
Toxoplasma: 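Assay of Toxoplasma gondii numbers, read through their beta-galactosidase reporter with a colour substrate. Concentration: 10 µM. Higher reads as fewer parasites (inferred from which compounds were picked for retests). Of about 67,000 compounds tested this way, about 260 (0.38%) reached 50% or more in at least one test.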

Values are the deposited “Percent Effect”, in %. The controls that fix the scale are not given in the record; negative values are as filed. Compounds were drawn at random from those tested, without regard to their results. A dash means the value is not listed here; it may have been measured.

SMILES | T. brucei | Toxoplasma
COc1c(CNC2CCSc3ccc(F)cc32)c(C)nn1C.Cl (stereo not given) | 9.588% | 7.119%
O=C(O)C(F)(F)F.[H][C@]12CC[C@@]3(N=C(c4ccccc4)NC3=O)[C@@]1([H])CN(CC1CC1)C2 | 23.53% | 0.7389%
COc1ccc(S(=O)(=O)NCC(O)c2sccc2C)cc1C (stereo not given) | 17.57% | -2.96%
Cc1nc(C2CCCN2C(=O)c2ccc3c(c2)nc(C)n3C)no1 (stereo not given) | -7.833% | 13.34%
Cn1c(C2CC2)nc2c1CCN(CC(=O)Nc1nccs1)C2 | 0.1811% | 2.894%
COCCc1noc(-c2cn(Cc3ccccc3C)nn2)n1 | - | -21.34%
CC(C)S(=O)(=O)NCC(Cc1cccc(F)c1)N1CCNC1=O (stereo not given) | 6.456% | -3.386%
COc1cccc(NC(=O)N(CCO)Cc2ccsc2)c1 | 51.17% | -6.048%
[H][C@]12CC[C@]([H])(CN(C(=O)c3ccc4[nH]cnc4c3)C1)N(CC=C(C)C)C2 | - | -22.33%
Cc1ncnc2c1CCN(C(=O)c1ccoc1)CC2 | 10.45% | 18.77%
COC(=O)C1CN(Cc2cc(F)ccc2Br)CCO1 (stereo not given) | -30.61% | 13.57%
CC(C)N1CCC2(CC1)CC(NS(C)(=O)=O)c1ccccc1O2.O=C(O)C(F)(F)F (stereo not given) | -34.59% | 13.22%
Cc1nc(O)ccc1C(=O)NCc1ncoc1C | -4.118% | 0.4284%
O=C(NCCC(O)c1ccco1)c1ccco1 (stereo not given) | -32.19% | -4.93%
COc1ccc(C(C)(C)C(=O)NCc2n[nH]c(=O)[nH]2)cc1 | -8.488% | 0.1873%
CC(C)C(=O)NS(=O)(=O)CCc1ccccc1 | -30.55% | 4.966%
O=C(Nc1cccc(N2CCOCC2)c1)N[C@H](CO)c1ccccc1 | -50.89% | 11.37%
O=C(O)C(F)(F)F.[H][C@@]12CCN(c3cnccn3)C[C@]1([H])CN(C(=O)c1nccn1C)C2 | -56.64% | 2.378%
Cc1cc(N2CCCC3(CN(C)C(=O)O3)C2)c2cc3c(cc2n1)OCO3 (stereo not given) | -17.57% | 4.97%
CCNC(=O)N1CCc2ccc(NC(=O)NCC3CC3)cc21 | -16.66% | 2.656%
Cc1nn(C)c2c(N3CCN(C(=O)C4CCCCC4)CC3)ncnc12 | -3.947% | 10.84%
CCCc1ccc(S(=O)(=O)NCCNC(=O)c2ccoc2)cc1 | -14.58% | 2.76%
CCCS(=O)(=O)N1CCC2(CC1)CC(N1CCCC1)c1ccccc12.O=C(O)C(F)(F)F (stereo not given) | 39.69% | -5.16%
CNC(=O)c1ccc2c(c1)C1(CCN(CC3CC3)CC1)C(=O)N2.O=C(O)C(F)(F)F | -19.13% | -5.793%
Cc1nnc2n1CCN(C(=O)CN1C(=O)CSc3ccccc31)C2 | -10.64% | 9.103%
Cc1cc(F)ccc1CN1CCC(O)(CN2CCCCC2)C1 (stereo not given) | -52.45% | -4.405%
COc1ccc(C(N)=O)cc1NCc1ncc(C(C)(C)C)o1 | -60.77% | 9.879%
Cc1ccc(NC(=O)N2CCN(Cc3noc(C4CC4)n3)CC2)cc1 | -5.309% | 5.906%
CC(=O)NCc1ccc(C(=O)Nc2ccc3c(c2)C(=O)NC3)cc1 | 13.03% | -13.76%
CCn1c(C)nc2cc(NC(=O)CC3CCN(S(C)(=O)=O)CC3)ccc21 | -16.36% | -0.6914%
COc1cc(CNC(=O)COC2CCCC2)ccc1O | -17.39% | 1.721%
[H][C@@]12CCCO[C@]1([H])[C@H](NC(=O)c1cscn1)CN2Cc1ccco1 | -68.9% | 9.933%
O=C(O)C(F)(F)F.O=C(O)C(F)(F)F.[H][C@@]12CO[C@@H](CN(C)Cc3ccco3)[C@]1([H])CCN(Cc1nccs1)C2 | -21.88% | -5.003%
Cc1cc(C)n(C2CCCN(C(=O)c3ccc(F)c(F)c3)C2)n1 (stereo not given) | -21.93% | 19.7%
CC(=O)c1ccc(-n2c(C)cn(CCS(C)(=O)=O)c2=O)cc1 | 9.617% | 3.757%
CC(C)CC(=O)N1CCCC2(CC(C(=O)Nc3ccccc3)=NO2)C1 (stereo not given) | -42.63% | 25.4%
COCCCN(Cc1cc(O)nc2ccccc12)C(=O)NC(C)C | -38.73% | 4.726%
CC(C)Cc1cc(NC(=O)c2ccccc2)n(C)n1 | -9.228% | -1.887%
C[C@@H]1CN(C(=O)C2(Cn3cccn3)CC2)CC[C@@]1(O)C1CCOCC1 | 1.041% | 1.443%
Cc1cc(C(=O)NCCC(C)C)ccc1NS(C)(=O)=O | -17.52% | -1.747%
CC(C)N1CCC(NC(=O)NCc2cccnc2)C1 (stereo not given) | 1.188% | 2.537%
CCN(CC)C(=O)CCNC(=O)N1CCC(c2ccccc2)C1 (stereo not given) | -4.913% | 1.039%
CC(C(=O)N1CCCN(Cc2cnn(C(C)C)c2)CC1)n1ccnc1 (stereo not given) | -10.65% | -9.478%
CC(Cn1cccn1)n1cnc2cccc(Cl)c2c1=O (stereo not given) | 11.2% | -2.55%
O=C(c1ccc2[nH]nnc2c1)N1CC[C@H](O)[C@]2(CCCO2)C1 | -15.56% | -4.657%
Cc1ccc(Oc2ncccc2CNC2CCCCC2)cn1 | -11.18% | -5.855%
CC(C)c1ccc(C(C)NC(=O)N2CCC(n3cncn3)CC2)cc1 (stereo not given) | -38.89% | -
CC(=O)NC1CCN(c2cc(C3CCNCC3)ccn2)CC1.Cl.Cl | -5.403% | -5.493%
O=C(O)C(F)(F)F.c1ccc(CN2CCc3ncnc(-c4ccoc4)c3CC2)nc1 | -21.3% | 13.68%
O=C(O)C(F)(F)F.O=C(O)C(F)(F)F.[H][C@@]12CN(Cc3nccs3)CCC[C@]1(C(=O)OCC)CN(CC(C)C)C2 | -27.05% | 9.481%
CNC(=O)c1cnc(/C=C/c2cc(OC)c3c(c2)OCCO3)s1 | -27% | 1.125%
COc1ccccc1OCc1cc(C(=O)N2CCOCC2CO)n[nH]1 (stereo not given) | -16.99% | 8.796%
CCOC(=O)c1sc2ccsc2c1CNC(=O)CC | 31.76% | 6.57%
[H][C@@]12CC(=O)N(CC)[C@@]1([H])CCN2S(=O)(=O)c1ccccc1 | -20.02% | -14.97%
CCNc1cc2c(nn1)CCN(C(=O)Cc1c(C)nn(C)c1C)C2 | -17.83% | 4.5%
COc1c(C(=O)N2CCC(CSc3ccccc3)C2)c(C)nn1C (stereo not given) | 12.47% | 5.486%
Cc1cccc(C)c1Nc1noc2c1CN(C(=O)c1ccnn1C)CC2 | 27.07% | 18%
[H][C@@]12CCN(CC3CC3)C[C@@]1([H])[C@H](C(=O)N1CCCCO1)CCO2 | -7.274% | 96.45%
COc1cccc(Nc2nc(C3CCNCC3)c3ccccn23)c1.Cl | 24.37% | -3.206%
O=C(CC1CC1)N1CCC2(CC1)CN(c1cccnc1)C(=O)CO2.O=C(O)C(F)(F)F | -59.01% | -21.74%
Cc1n[nH]c(C)c1C1COCCN1C(=O)c1ccc2c(c1)CCO2 (stereo not given) | -2.077% | 18.62%
CC(Sc1nnnn1C1CCOCC1)C(F)(F)F (stereo not given) | -16.98% | -
CC(C)c1nc2oc(C(=O)N3CCOCC3)c(N)c2c2c1CCCC2 | -46.4% | 9.145%
O=C(Cc1noc2ccccc12)N1CCCC1c1noc(C2CC2)n1 (stereo not given) | -32% | -0.6318%
Cc1ncc(CNC(=O)NC2CCN(C3CCCC3)CC2)s1 | 9.912% | -8.038%
O=C(CCCn1cncn1)N1CCC2(CC1)[C@H](O)C[C@@H]2OCCO | -44.62% | 20.67%
[H][C@]12CCN(Cc3cc(=O)n4c5c(cccc35)CCC4)C[C@]([H])(CC1)N2 | -22.51% | 19.78%
[H][C@@]12CS(=O)(=O)C[C@]1([H])N(Cc1nc3c(s1)CCCC3)CCN2C | -62.97% | -3.288%
c1cc(-c2nc(CN3CCc4c(ncn4C4CC4)C3)cs2)cs1 | 32.24% | 8.764%
CNc1cc(-c2ccccc2CN)c2cc[nH]c2n1 | -18.3% | -3.639%
COCCN1CCC2(CC1)CN(C(=O)c1ccccc1)CCO2.O=C(O)C(F)(F)F | -14.53% | -8.247%
CN(C)Cc1ccccc1CN(C)C(=O)c1ccoc1 | -7.044% | -2.002%

The first 7 entries again:

{"smiles": "COc1c(CNC2CCSc3ccc(F)cc32)c(C)nn1C.Cl", "stereo": "stereo not given", "T. brucei": 9.588, "Toxoplasma": 7.119}
{"smiles": "O=C(O)C(F)(F)F.[H][C@]12CC[C@@]3(N=C(c4ccccc4)NC3=O)[C@@]1([H])CN(CC1CC1)C2", "T. brucei": 23.53, "Toxoplasma": 0.7389}
{"smiles": "COc1ccc(S(=O)(=O)NCC(O)c2sccc2C)cc1C", "stereo": "stereo not given", "T. brucei": 17.57, "Toxoplasma": -2.96}
{"smiles": "Cc1nc(C2CCCN2C(=O)c2ccc3c(c2)nc(C)n3C)no1", "stereo": "stereo not given", "T. brucei": -7.833, "Toxoplasma": 13.34}
{"smiles": "Cn1c(C2CC2)nc2c1CCN(CC(=O)Nc1nccs1)C2", "T. brucei": 0.1811, "Toxoplasma": 2.894}
{"smiles": "COCCc1noc(-c2cn(Cc3ccccc3C)nn2)n1", "Toxoplasma": -21.34}
{"smiles": "CC(C)S(=O)(=O)NCC(Cc1cccc(F)c1)N1CCNC1=O", "stereo": "stereo not given", "T. brucei": 6.456, "Toxoplasma": -3.386}

Data taken from ChEMBL document CHEMBL3988442, “University of Dundee, Small-Polar-MMV Screening Library” (2021).